# Source: the supplement of paper PMC11438910
# The other results are listed elsewhere or left out. Most of these values are background signal.
# B1: 4-173.1 (protein)
# chain 1: QLQLQESGPGLVKPSETLSLTCAVSGASISSNYWSWIRQAPGKGLEWIGRISGSSGSTDYNPSLKSRVTISTDTSKNQFSLKLNSVTAADTAVYYCARVSYWGHYGDYWGQGVLVTVSS
# chain 2: QPVLTQPSSHSASPGAPARLTCTLSSGFSVGDFWIRWYQQKPGSPPRYLLYYHSDSDKHQGSGVPSRFSGSNDASANAGILHISGLQPEDEADYYCCTWHGNSKTQIFGAGTRLTVL
# What was measured:
# Experiment in all cases: fluorescence intensity of antibody binding to polysaccharide-coupled beads; higher = stronger binding
# [1] = target: pneumococcal polysaccharide Pn16F
# Procedure: (§1)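 Recombinant rhesus-murine chimeric IgG1 antibodies were tested against antigen-coupled MagPlex beads in a 96-plex Luminex direct immunoassay (dLIA). The beads carried pneumococcal capsular polysaccharides of 93 serotypes plus C-polysaccharides. Antibody was added at 0.1–12,500 ng/mL for 1 h, then PE anti-mouse IgG, and net MFI was read on a Bio-Plex 3D. Only the rhesus variable regions are printed; constant regions are murine IgG1/kappa/lambda, and the signal peptide is MGWSCIILFLVATATGVHS.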
# [2] = target: pneumococcal polysaccharide Pn17A
# Procedure: as §1
# [3] = target: pneumococcal polysaccharide Pn17F
# Procedure: as §1
# [4] = target: pneumococcal polysaccharide Pn18A
# Procedure: as §1
# [5] = target: pneumococcal polysaccharide Pn18B
# Procedure: as §1
# [6] = target: pneumococcal polysaccharide Pn18C
# Procedure: as §1
# [7] = target: pneumococcal polysaccharide Pn18F
# Procedure: as §1
# [8] = target: pneumococcal polysaccharide Pn19A
# Procedure: as §1
# [9] = target: pneumococcal polysaccharide Pn19B
# Procedure: as §1
# [10] = target: pneumococcal polysaccharide Pn19C
# Procedure: as §1
# [11] = target: pneumococcal polysaccharide Pn19F
# Procedure: as §1
# [12] = target: pneumococcal polysaccharide Pn2
# Procedure: as §1
# [13] = antibody concentration 81.7561 ng/mL
# [14] = antibody concentration 437.17 ng/mL
# [15] = antibody concentration 2337.65 ng/mL
# [16] = antibody concentration 12500 ng/mL
# [17] = antibody concentration 0.1 ng/mL
# [18] = antibody concentration 0.534724 ng/mL
# [19] = antibody concentration 2.8593 ng/mL
# [20] = antibody concentration 15.2894 ng/mL
binder,measurement,setting,value
B1,fluorescence intensity,[1]; [13],24.5 MFI
same,fluorescence intensity,[1]; [14],26 MFI
same,fluorescence intensity,[1]; [15],27.2 MFI
same,fluorescence intensity,[1]; [16],35.5 MFI
same,fluorescence intensity,[2]; [17],21.5 MFI
same,fluorescence intensity,[2]; [18],20.2 MFI
same,fluorescence intensity,[2]; [19],20 MFI
same,fluorescence intensity,[2]; [20],21.5 MFI
same,fluorescence intensity,[2]; [13],21.5 MFI
same,fluorescence intensity,[2]; [14],22.5 MFI
same,fluorescence intensity,[2]; [15],22.5 MFI
same,fluorescence intensity,[2]; [16],24 MFI
same,fluorescence intensity,[3]; [17],25.5 MFI
same,fluorescence intensity,[3]; [18],27 MFI
same,fluorescence intensity,[3]; [19],23.2 MFI
same,fluorescence intensity,[3]; [20],27.8 MFI
same,fluorescence intensity,[3]; [13],28 MFI
same,fluorescence intensity,[3]; [14],25 MFI
same,fluorescence intensity,[3]; [15],27.5 MFI
same,fluorescence intensity,[3]; [16],30 MFI
same,fluorescence intensity,[4]; [17],24 MFI
same,fluorescence intensity,[4]; [18],25 MFI
same,fluorescence intensity,[4]; [19],26.2 MFI
same,fluorescence intensity,[4]; [20],24 MFI
same,fluorescence intensity,[4]; [13],25 MFI
same,fluorescence intensity,[4]; [14],25 MFI
same,fluorescence intensity,[4]; [15],25.8 MFI
same,fluorescence intensity,[4]; [16],29 MFI
same,fluorescence intensity,[5]; [17],29.5 MFI
same,fluorescence intensity,[5]; [18],31 MFI
same,fluorescence intensity,[5]; [19],33.8 MFI
same,fluorescence intensity,[5]; [20],31 MFI
same,fluorescence intensity,[5]; [13],31 MFI
same,fluorescence intensity,[5]; [14],32.2 MFI
same,fluorescence intensity,[5]; [15],31.5 MFI
same,fluorescence intensity,[5]; [16],38 MFI
same,fluorescence intensity,[6]; [17],20 MFI
same,fluorescence intensity,[6]; [18],19 MFI
same,fluorescence intensity,[6]; [19],18 MFI
same,fluorescence intensity,[6]; [20],18 MFI
same,fluorescence intensity,[6]; [13],18 MFI
same,fluorescence intensity,[6]; [14],21 MFI
same,fluorescence intensity,[6]; [15],20 MFI
same,fluorescence intensity,[6]; [16],28.2 MFI
same,fluorescence intensity,[7]; [17],24 MFI
same,fluorescence intensity,[7]; [18],23.5 MFI
same,fluorescence intensity,[7]; [19],22 MFI
same,fluorescence intensity,[7]; [20],22.5 MFI
same,fluorescence intensity,[7]; [13],23 MFI
same,fluorescence intensity,[7]; [14],24.8 MFI
same,fluorescence intensity,[7]; [15],25.5 MFI
same,fluorescence intensity,[7]; [16],29.5 MFI
same,fluorescence intensity,[8]; [17],19.5 MFI
same,fluorescence intensity,[8]; [18],17.8 MFI
same,fluorescence intensity,[8]; [19],20 MFI
same,fluorescence intensity,[8]; [20],21 MFI
same,fluorescence intensity,[8]; [13],18 MFI
same,fluorescence intensity,[8]; [14],19 MFI
same,fluorescence intensity,[8]; [15],22 MFI
same,fluorescence intensity,[8]; [16],24.5 MFI
same,fluorescence intensity,[9]; [17],33.5 MFI
same,fluorescence intensity,[9]; [18],32 MFI
same,fluorescence intensity,[9]; [19],29 MFI
same,fluorescence intensity,[9]; [20],30 MFI
same,fluorescence intensity,[9]; [13],29 MFI
same,fluorescence intensity,[9]; [14],30.5 MFI
same,fluorescence intensity,[9]; [15],34 MFI
same,fluorescence intensity,[9]; [16],68.5 MFI
same,fluorescence intensity,[10]; [17],27.5 MFI
same,fluorescence intensity,[10]; [18],26.2 MFI
same,fluorescence intensity,[10]; [19],29 MFI
same,fluorescence intensity,[10]; [20],29 MFI
same,fluorescence intensity,[10]; [13],25.8 MFI
same,fluorescence intensity,[10]; [14],27.5 MFI
same,fluorescence intensity,[10]; [15],29 MFI
same,fluorescence intensity,[10]; [16],50 MFI
same,fluorescence intensity,[11]; [17],26 MFI
same,fluorescence intensity,[11]; [18],24.5 MFI
same,fluorescence intensity,[11]; [19],25.5 MFI
same,fluorescence intensity,[11]; [20],28.5 MFI
same,fluorescence intensity,[11]; [13],26.2 MFI
same,fluorescence intensity,[11]; [14],27.8 MFI
same,fluorescence intensity,[11]; [15],29.5 MFI
same,fluorescence intensity,[11]; [16],37.8 MFI
same,fluorescence intensity,[12]; [17],19 MFI
same,fluorescence intensity,[12]; [18],20 MFI
same,fluorescence intensity,[12]; [19],22.5 MFI
same,fluorescence intensity,[12]; [20],19.2 MFI
same,fluorescence intensity,[12]; [13],19.8 MFI
same,fluorescence intensity,[12]; [14],21 MFI

# Reprinted at random: four records from the list
binder,measurement,setting,value
B1,fluorescence intensity,[12]; [20],19.2 MFI
same,fluorescence intensity,[7]; [15],25.5 MFI
same,fluorescence intensity,[1]; [15],27.2 MFI
same,fluorescence intensity,[8]; [16],24.5 MFI
